This note sets out measurements from PubChem BioAssay AID2071 (Sanford-Burnham Center for Chemical Genomics, 2009).

The list shows a part of the results.

The nature of the test: NALP1 inflammasome inhibitors in reconstituted yeast, colorimetric, S. cerevisiae, triplicate retest (AID 2071). Particulars: S. cerevisiae NALP1/ASC/caspase-1 growth, X-gal OD620, 72 h, at 20 µM, stronger effect = higher value.
`CC(=O)NC(SC(=S)N(C)C)C(Cl)(Cl)Cl` (stereo not drawn): the inhibition worked out at 113%.

`O=C(OC1CN2CCC1CC2)C12CC3CC(CC(C3)C1)C2` (stereo not drawn): the inhibition was 22.1%.

On to `O=[N+]([O-])c1cc([N+](=O)[O-])c(-c2ccn[nH]2)s1`, for which the inhibition stood at 39.9%.

As usually defined, the inhibition is the change of the read-out against control, counted positive when it falls.
